From PubChem BioAssay AID588519 (ICCB-Longwood Screening Facility, Harvard Medical School, 2011)
“And” between values parts separate entries of the source, which are not always exact repeats. Identical values can stand only once. Some of the results follow.

molecular target: Genome polyprotein (Poliovirus type 1 (strain Mahoney)) (UniProt P03300); assay: poliovirus RdRp elongation inhibitors, primary screen, biochemical, fluorescence polarization, total intensity (AID 588519); conditions: poliovirus polymerase elongation, stronger effect = lower value; % elongation: measured here: total intensity read-out, compound at 16.7 µg/mL; z-score: measured here: FP z-score

Structure (SMILES)	% elongation	z-score
Cc1cc(NC2=NC3C(C(=O)N(C)C(=O)N3C)N2C)n(-c2ccccc2)n1 (stereo not given)	105%	0.1
O=P1(Nc2nncs2)C=C(c2ccccc2)SC(c2ccccc2)=C1	92%	-0.7
O=P1(Nc2nc3ccc(Cl)cc3s2)COc2ccccc2O1 (stereo not given)	103%	-0.5
O=C(OCCN1CCN(CCOCc2ccccc2)CC1)C(O)(c1ccccc1)c1ccccc1	99%	-0.7
O=C(OCC1CN(Cc2ccccc2)CCO1)C(O)(c1ccccc1)c1ccccc1 (stereo not given)	103%	0.5
CC1CCC(C(C)C)C(OP(=O)(Nc2nccs2)c2ccccc2)C1 (stereo not given)	118%	0.3
COc1cc2c(cc1NP(C)(=O)Oc1ccccc1)oc1ccccc12 (stereo not given)	109%	0.5
COC(=O)c1cc2c(s1)N=C(c1ccccc1)N(C)P2(=O)N1CCOCC1 (stereo not given)	95%	-0.1
Nc1nonc1OCc1nonc1COc1nonc1N	103%	0.3
CC(=O)OC1(C#N)CN2CCC1CC2 (stereo not given)	103%	-0.7
CC(=O)OC1CN2CCC1C(c1ccccc1)C2 (stereo not given)	104%	1.1
O=P(Nc1nccs1)(c1ccccc1)c1ccccc1	104%	0.2
C/C1=C2N=C(/C=C3N=C(/C(C)=C4\[N-][C@@](C)([C@@H]5N=C1[C@](C)(CCC(=O)NC[C@@H](C)OP(=O)([O-])O[C@H]1[C@@H](O)[C@@H](n6cnc7cc(C)c(C)cc76)O[C@@H]1CO)[C@H]5CC(N)=O)[C@@](C)(CC(N)=O)[C@@H]4CCC(N)=O)[C@@](C)(CC(N)=O)[C@@H]\3CCC(N)=O)C(C)(C)[C@@H]/2CCC(N)=O.[C-]#N.[Co+3]	55%	-4.5
Cc1ccccc1NP(C)(=O)Nc1ccccc1C	104%	0.3
CCc1ccc(OP(C)(=O)Nc2cccnc2)cc1 (stereo not given)	106%	0.8
CCc1nc2c(n1)c1c(non1O)c1c2no[n+]1[O-]	82%	-4.1
OCCSCCO	102%	-0.1
CP(=O)(Nc1ccc(Cl)cc1)Oc1ccc(F)cc1 (stereo not given)	107%	0.2
O=C(COC(=O)C(O)(c1ccccc1)c1ccccc1)N1CCCCC1	103%	-0.3
CCOP(=Nc1nc2ccccc2n2nnnc12)(OCC)OCC	103%	-0.2
CN(C(=O)Cc1ccc(Cl)c(Cl)c1)[C@H]1CCCC[C@@H]1N1CCCC1	102% and 104%	0.6 and 1.3
CCOP(OCC)N1CCOCC1	101%	0
CP(=O)(Nc1ccccn1)Oc1ccccc1 (stereo not given)	105%	0.2
O=P1(Nc2nccs2)CC=CC1	101%	0
CN(C)P1(=O)Nc2ccccc2S1 (stereo not given)	115%	0.6
O=C(OC1CN2CCC1CC2)C12CC3CC(CC(C3)C1)C2 (stereo not given)	104%	0.2
CC1=Nc2ccc(C(F)(F)F)cc2C1(C)C	97%	-0.2
COP1(=S)N=C2c3ccccc3CN2c2cc(N(C)C)ccc21 (stereo not given)	95%	-0.1

Structure (SMILES)	% elongation	z-score
Cc1cc(C)cc(OP(C)(=O)NCc2ccccc2)c1 (stereo not given)	99%	0.5
Nc1nonc1OCCOc1nonc1N	103%	0.3
O=C(O)CCC(=O)N=S(c1ccccc1)c1ccccc1.O=[N+]([O-])c1cc([N+](=O)[O-])c(O)c([N+](=O)[O-])c1	92%	-0.6
COc1ccccc1OP(C)(=O)Nc1ccccc1 (stereo not given)	99%	-0.5
CCN1C(=O)N(c2ccccc2)P(=S)(OC)c2cc3c(cc21)OCCO3 (stereo not given)	100%	-0.6
CP(=O)(Nc1ccc(Cl)cc1)Oc1ccccc1 (stereo not given)	102%	0
CP(=O)(NC(=O)Nc1ccccc1)Oc1ccccc1 (stereo not given)	93%	0
COP1(=S)c2c(C)nn(-c3ccccc3)c2N=C(c2ccccc2)N1C1CC1 (stereo not given)	98%	-0.1
CCn1cccc/c1=N\P1(=S)OCCO1	100%	0.1
Cc1cccc(NP(C)(=O)Oc2ccccc2)c1 (stereo not given)	100%	-0.4
CCOC(=O)c1ccc(NP(C)(=O)Oc2ccc(OC)cc2)cc1 (stereo not given)	98%	0.1
Nc1nonc1-c1no[n+]([O-])c1-c1nonc1N	88%	-1.4
O=P1(Nc2ccccn2)COc2ccccc2OC1	107%	0.3
Cc1nn(CCC#N)c2c1P(=O)(Nc1ccccc1Cl)N(C)C(c1ccc(F)cc1)=N2 (stereo not given)	108%	0.1
CP(=O)(N1CCOCC1)N1CCOCC1	103%	0.6
Cc1nn(-c2ccccc2)c2c1P(=O)(N1CCOCC1)N(C)C(c1ccccc1)=N2 (stereo not given)	105%	0.2
Cc1ccc(C(=O)OC2CN3CCC2CC3)cc1 (stereo not given)	115%	0.9
CC1(C)COP(=S)(N(C2=NCCC2)c2ccccc2)OC1	90%	-0.4
Cc1cc(C)cc(OP(C)(=O)Nc2ccc(OC(C)C)cc2)c1 (stereo not given)	107%	-0.3
CCSP(=O)(c1ccccc1)c1ccccc1	89%	-0.5
NC(=O)COC(=O)C1(O)c2ccccc2-c2ccccc21	109%	0.1
CCOP1(=S)c2c(C)nn(CCC#N)c2N=C(c2ccc(F)cc2)N1C (stereo not given)	101%	-0.3
NC(=O)Nc1ccc([As](=O)(O)O)cc1	102%	0.1
O=P1(Nc2nc3ccc(Cl)cc3s2)COc2ccccc2OC1	103%	0.3
Cc1cccc(OCC(=O)OC2CN3CCC2CC3)c1 (stereo not given)	102%	-0.2
COc1cc(-n2cnnn2)ccc1-n1cnnn1	96%	0.2
O=C(OC1CN2CCC1CC2)c1ccc(Cl)cc1 (stereo not given)	104%	0.1
